Laboratory results reported in patent US20260274948A1 (AUTOLUS, published 2026).
Numbering of substitutions follows the chain as printed. These are yes or no findings as the source states them, for the method shown. Some results given as binding are weak or reduced against the parent protein; the word gives no strength. Each block holds one binder with its values, some of them ahead of it.

Amino acid sequences for entries named in this document (tags omitted). Residues count along the entry.
UniProt P01850, residues 1-129: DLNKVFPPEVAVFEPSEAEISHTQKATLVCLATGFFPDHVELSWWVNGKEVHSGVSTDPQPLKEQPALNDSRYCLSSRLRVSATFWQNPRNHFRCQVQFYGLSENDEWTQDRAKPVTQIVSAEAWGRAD

Biological target: TRBC1 (T-cell receptor beta constant region 1) (human) (UniProt P01850)
Test: ELISA

B1: Jovi Hum 8 (antibody, V domains shown)
VH: QVQLVQSGAEVKKPGASVKVSCKASGYTFTGYVMHWVRQAPGQGLEWMGFINPYNDDIQSNERFRGRVTMTRDTSISTAYMELSRLRSDDTAVYYCARGAGYNFDGAYRFFDFWGQGTMVTVSS
VL: DIVMTQSPLSLPVTPGEPASISCRSSQRLVHSNGNTYLHWYLQKPGQSPRLLIYRVSNRFPGVPDRFSGSGSGTDFTLKISRVEAEDVGVYYCSQSTHVPYTFGQGTKLEIK
notes: H-AF 1 carries no back-mutation (Q3, V20, M48, R71, T73), i.e. the plain H-AF062256 graft; also called H-AF 1; H-AF1, 3aaz
binding: binds

B2: humanised antibody with H-EF177999 VH and 3aaz VL (antibody, V domains shown)
VH: B1 VH with Q1E, Q6E, I76T, A79V, R85S, D89E, M119L
VL: B1 VL
binding: binds

B3: humanised antibody with H-KF688165 VH and 3aaz VL (antibody, V domains shown)
VH: B1 VH with G26E, T28S, L83V, R85S, R87T, T91A, V93I, M119L
VL: B1 VL
binding: binds

B4: Jovi Hum 16 (antibody, V domains shown)
VH: B1 VH with T74K
VL: B1 VL
notes: also called H-AF 2
binding: binds

B7: Jovi Hum 19 (antibody, V domains shown)
VH: B1 VH with M48I
VL: B1 VL
notes: also called H-AF 5
binding: binds

B8: Jovi Hum 20 (antibody, V domains shown)
VH: B1 VH with M48I, T74K
VL: B1 VL
notes: also called H-AF 6
binding: binds

B10: Jovi Hum 27 (antibody, V domains shown)
VH: B1 VH with V20M, M48I
VL: B1 VL
notes: also called H-AF 13
binding: binds

B11: chimeric antibody having murine VH and VL domains (Jovi-Mu) (antibody, V domains shown)
VH: EVRLQQSGPDLIKPGASVKMSCKASGYTFTGYVMHWVKQRPGQGLEWIGFINPYNDDIQSNERFRGKATLTSDKSSTTAYMELSSLTSEDSAVYYCARGAGYNFDGAYRFFDFWGQGTTLTVSS
VL: DVVMTQSPLSLPVSLGDQASISCRSSQRLVHSNGNTYLHWYLQKPGQSPKLLIYRVSNRFPGVPDRFSGSGSGTDFTLKISRVEAEDLGIYFCSQSTHVPYTFGGGTKLEIKR
binding: binds

B12: chimeric antibody with humanised H-AF062256 VH and murine JOVI-1 VL (antibody, V domains shown)
VH: B1 VH
VL: B11 VL
binding: binds

B13: chimeric antibody with humanised H-EF177999 VH and murine JOVI-1 VL (antibody, V domains shown)
VH: B1 VH with Q1E, Q6E, I76T, A79V, R85S, D89E, M119L
VL: B11 VL
binding: binds

The remaining lines, values ahead:

binding: binds
B5: Jovi Hum 17 (antibody, V domains shown)
VH: B1 VH with R72S
VL: B1 VL
notes: also called H-AF 3

binding: binds
B6: Jovi Hum 18 (antibody, V domains shown)
VH: B1 VH with R72S, T74K
VL: B1 VL
notes: also called H-AF 4

binding: binds
B9: Jovi Hum 26 (antibody, V domains shown)
VH: B1 VH with V20M, R72S, T74K
VL: B1 VL
notes: also called H-AF 12

binding: binds
B14: chimeric antibody with humanised H-KF688165 VH and murine JOVI-1 VL (antibody, V domains shown)
VH: B1 VH with G26E, T28S, L83V, R85S, R87T, T91A, V93I, M119L
VL: B11 VL

binding: binds
B15: chimeric antibody with murine JOVI-1 VH and humanised 3aaz VL (antibody, V domains shown)
VH: B11 VH
VL: B1 VL
